This note sets out measurements from paper doi:10.1101/2022.09.20.508788.

The chains behind the UniProt entries cited, without tags or fusion partners. Residues count along the entry.
UniProt Q95460, 23-341: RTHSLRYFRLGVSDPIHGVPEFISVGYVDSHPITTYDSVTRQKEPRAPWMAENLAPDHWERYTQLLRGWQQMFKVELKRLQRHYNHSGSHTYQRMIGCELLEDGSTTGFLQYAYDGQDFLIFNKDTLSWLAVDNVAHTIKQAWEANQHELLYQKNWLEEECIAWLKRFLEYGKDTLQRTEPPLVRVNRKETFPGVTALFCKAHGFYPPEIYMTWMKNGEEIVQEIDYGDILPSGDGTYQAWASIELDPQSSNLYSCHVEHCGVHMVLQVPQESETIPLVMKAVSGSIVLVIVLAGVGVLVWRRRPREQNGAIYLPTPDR

No constants are given. Whether binding was seen depends on the method and setting. Binding seen in cells or lysates may run through a third protein. Here binding means that the protein was enriched with, or labelled near, the bait; the list need not be complete.

The assay deals with HA tagged MR1 (Major Histocompatibility Related Protein 1) (UniProt Q95460). Nature of the assay: affinity purification with mass spectrometry.

With “Calnexin (CANX) (from UniProt P27824 21-592)”, the binding entry is recorded as “binds”.

As to “Calreticulin (CALR) (from UniProt P27797 18-417)”, the binding result is given as “binds”.

For the molecule SQSTM1/p62 (from UniProt Q13501 1-440), the binding entry is “binds”.

B1: TMEM59 (protein, UniProt Q9BXS4 36-323)
chain: EAFDSVLGDTASCHRACQLTYPLHTYPKEEELYACQRGCRLFSICQFVDDGIDLNRTKLECESACTEAYSQSDEQYACHLGCQNQLPFAELRQEQLMSLMPKMHLLFPLTLVRSFWSDMMDSAQSFITSSWTFYLQADDGKIVIFQSKPEIQYAPHLEQEPTNLRESSLSKMSYLQMRNSQAHRNFLEDGESDGFLRCLSLNSGWILTTTLVLSVMVLLWICCATVATAVEQYVPSEKLSIYGDLEFMNEQKLNRYPASSLVVVRSKTEDHEEAGPLPTKVNLAHSEI
As to B1, the binding entry is on record as “binds”.

B2: EDEM1 (protein, UniProt Q92611 1-657)
chain: MQWRALVLGLVLLRLGLHGVLWLVFGLGPSMGFYQRFPLSFGFQRLRSPDGPASPTSGPVGRPGGVSGPSWLQPPGTGAAQSPRKAPRRPGPGMCGPANWGYVLGGRGRGPDEYEKRYSGAFPPQLRAQMRDLARGMFVFGYDNYMAHAFPQDELNPIHCRGRGPDRGDPSNLNINDVLGNYSLTLVDALDTLAIMGNSSEFQKAVKLVINTVSFDKDSTVQVFEATIRVLGSLLSAHRIITDSKQPFGDMTIKDYDNELLYMAHDLAVRLLPAFENTKTGIPYPRVNLKTGVPPDTNNETCTAGAGSLLVEFGILSRLLGDSTFEWVARRAVKALWNLRSNDTGLLGNVVNIQTGHWVGKQSGLGAGLDSFYEYLLKSYILFGEKEDLEMFNAAYQSIQNYLRRGREACNEGEGDPPLYVNVNMFSGQLMNTWIDSLQAFFPGLQVLIGDVEDAICLHAFYYAIWKRYGALPERYNWQLQAPDVLFYPLRPELVESTYLLYQATKNPFYLHVGMDILQSLEKYTKVKCGYATLHHVIDKSTEDRMESFFLSETCKYLYLLFDEDNPVHKSGTRYMFTTEGHIVSVDEHLRELPWKEFFSEEGGQDQGGKSVHRPKPHELKVINSSSNCNRVPDERRYSLPLKSIYMRQIDQMVGLI
As for B2, the binding result is given as “binds”.

B3: AUP1 (protein, UniProt Q9Y679 1-410)
chain: MELPSGPGPERLFDSHRLPGDCFLLLVLLLYAPVGFCLLVLRLFLGIHVFLVSCALPDSVLRRFVVRTMCAVLGLVARQEDSGLRDHSVRVLISNHVTPFDHNIVNLLTTCSTPLLNSPPSFVCWSRGFMEMNGRGELVESLKRFCASTRLPPTPLLLFPEEEATNGREGLLRFSSWPFSIQDVVQPLTLQVQRPLVSVTVSDASWVSELLWSLFVPFTVYQVRWLRPVHRQLGEANEEFALRVQQLVAKELGQTGTRLTPADKAEHMKRQRHPRLRPQSAQSSFPPSPGPSPDVQLATLAQRVKEVLPHVPLGVIQRDLAKTGCVDLTITNLLEGAVAFMPEDITKGTQSLPTASASKFPSSGPVTPQPTALTFAKSSWARQESLQERKQALYEYARRRFTERRAQEAD
Take B3: the binding entry is on record as “binds”.
